According to article doi:10.1101/2023.03.14.532574:
Results are given in words; binding and its absence hold for the method and conditions named. Binding seen in cells or lysates may run through a third protein. Some entries that bind do so weakly or less than the wild type. One block for each molecule: values may come before it.

By UniProt entry, the sequences of proteins in these tests, tags left out.
UniProt Q9P2D3: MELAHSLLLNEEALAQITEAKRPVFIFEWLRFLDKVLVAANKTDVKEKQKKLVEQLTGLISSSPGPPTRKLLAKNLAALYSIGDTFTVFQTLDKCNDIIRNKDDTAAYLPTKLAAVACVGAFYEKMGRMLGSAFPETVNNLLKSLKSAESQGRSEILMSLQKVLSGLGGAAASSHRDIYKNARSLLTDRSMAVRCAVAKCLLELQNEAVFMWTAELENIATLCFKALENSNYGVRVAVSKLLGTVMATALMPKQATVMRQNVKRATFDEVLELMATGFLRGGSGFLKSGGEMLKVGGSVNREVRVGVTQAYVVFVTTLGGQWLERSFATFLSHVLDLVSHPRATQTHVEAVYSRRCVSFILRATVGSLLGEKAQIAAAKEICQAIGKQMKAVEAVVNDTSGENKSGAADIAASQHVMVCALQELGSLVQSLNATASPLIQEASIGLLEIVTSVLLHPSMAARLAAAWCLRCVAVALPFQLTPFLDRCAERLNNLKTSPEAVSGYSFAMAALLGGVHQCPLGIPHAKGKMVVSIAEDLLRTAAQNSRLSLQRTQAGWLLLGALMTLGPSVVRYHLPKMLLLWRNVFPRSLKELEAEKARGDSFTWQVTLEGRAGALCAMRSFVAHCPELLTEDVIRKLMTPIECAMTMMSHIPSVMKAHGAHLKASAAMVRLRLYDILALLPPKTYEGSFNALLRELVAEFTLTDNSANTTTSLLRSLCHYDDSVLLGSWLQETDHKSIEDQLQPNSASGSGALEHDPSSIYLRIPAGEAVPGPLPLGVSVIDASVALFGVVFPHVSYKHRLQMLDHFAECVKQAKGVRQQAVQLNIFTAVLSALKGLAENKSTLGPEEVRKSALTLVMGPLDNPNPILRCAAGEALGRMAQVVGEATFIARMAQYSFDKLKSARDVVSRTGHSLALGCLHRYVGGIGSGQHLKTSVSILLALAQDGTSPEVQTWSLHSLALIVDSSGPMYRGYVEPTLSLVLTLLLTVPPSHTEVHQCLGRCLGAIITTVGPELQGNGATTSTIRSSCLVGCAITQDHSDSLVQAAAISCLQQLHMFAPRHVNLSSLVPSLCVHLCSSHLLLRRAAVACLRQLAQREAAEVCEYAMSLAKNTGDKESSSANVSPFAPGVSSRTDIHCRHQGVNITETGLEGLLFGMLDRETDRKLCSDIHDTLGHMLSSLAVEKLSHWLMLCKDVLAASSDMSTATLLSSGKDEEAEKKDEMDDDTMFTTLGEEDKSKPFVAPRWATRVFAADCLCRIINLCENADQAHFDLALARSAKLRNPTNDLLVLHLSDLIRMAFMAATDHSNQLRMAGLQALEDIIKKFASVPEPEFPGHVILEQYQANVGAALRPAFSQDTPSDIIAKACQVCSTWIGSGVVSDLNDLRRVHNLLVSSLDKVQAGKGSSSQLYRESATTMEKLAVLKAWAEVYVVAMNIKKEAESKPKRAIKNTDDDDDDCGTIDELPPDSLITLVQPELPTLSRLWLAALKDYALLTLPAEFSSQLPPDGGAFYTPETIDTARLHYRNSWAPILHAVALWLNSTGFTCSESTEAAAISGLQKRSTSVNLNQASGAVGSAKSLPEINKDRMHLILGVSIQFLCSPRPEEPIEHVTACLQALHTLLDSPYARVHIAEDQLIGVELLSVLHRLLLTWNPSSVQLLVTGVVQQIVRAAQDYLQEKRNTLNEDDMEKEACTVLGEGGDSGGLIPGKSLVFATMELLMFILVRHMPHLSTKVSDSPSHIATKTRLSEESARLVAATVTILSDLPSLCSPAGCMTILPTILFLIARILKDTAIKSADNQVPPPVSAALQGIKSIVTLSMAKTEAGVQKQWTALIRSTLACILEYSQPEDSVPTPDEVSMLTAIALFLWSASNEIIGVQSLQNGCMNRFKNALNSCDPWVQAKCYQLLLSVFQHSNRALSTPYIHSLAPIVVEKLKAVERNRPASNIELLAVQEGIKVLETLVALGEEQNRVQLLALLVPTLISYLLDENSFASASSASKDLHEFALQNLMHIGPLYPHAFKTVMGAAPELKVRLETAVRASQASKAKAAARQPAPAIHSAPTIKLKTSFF
UniProt Q14203: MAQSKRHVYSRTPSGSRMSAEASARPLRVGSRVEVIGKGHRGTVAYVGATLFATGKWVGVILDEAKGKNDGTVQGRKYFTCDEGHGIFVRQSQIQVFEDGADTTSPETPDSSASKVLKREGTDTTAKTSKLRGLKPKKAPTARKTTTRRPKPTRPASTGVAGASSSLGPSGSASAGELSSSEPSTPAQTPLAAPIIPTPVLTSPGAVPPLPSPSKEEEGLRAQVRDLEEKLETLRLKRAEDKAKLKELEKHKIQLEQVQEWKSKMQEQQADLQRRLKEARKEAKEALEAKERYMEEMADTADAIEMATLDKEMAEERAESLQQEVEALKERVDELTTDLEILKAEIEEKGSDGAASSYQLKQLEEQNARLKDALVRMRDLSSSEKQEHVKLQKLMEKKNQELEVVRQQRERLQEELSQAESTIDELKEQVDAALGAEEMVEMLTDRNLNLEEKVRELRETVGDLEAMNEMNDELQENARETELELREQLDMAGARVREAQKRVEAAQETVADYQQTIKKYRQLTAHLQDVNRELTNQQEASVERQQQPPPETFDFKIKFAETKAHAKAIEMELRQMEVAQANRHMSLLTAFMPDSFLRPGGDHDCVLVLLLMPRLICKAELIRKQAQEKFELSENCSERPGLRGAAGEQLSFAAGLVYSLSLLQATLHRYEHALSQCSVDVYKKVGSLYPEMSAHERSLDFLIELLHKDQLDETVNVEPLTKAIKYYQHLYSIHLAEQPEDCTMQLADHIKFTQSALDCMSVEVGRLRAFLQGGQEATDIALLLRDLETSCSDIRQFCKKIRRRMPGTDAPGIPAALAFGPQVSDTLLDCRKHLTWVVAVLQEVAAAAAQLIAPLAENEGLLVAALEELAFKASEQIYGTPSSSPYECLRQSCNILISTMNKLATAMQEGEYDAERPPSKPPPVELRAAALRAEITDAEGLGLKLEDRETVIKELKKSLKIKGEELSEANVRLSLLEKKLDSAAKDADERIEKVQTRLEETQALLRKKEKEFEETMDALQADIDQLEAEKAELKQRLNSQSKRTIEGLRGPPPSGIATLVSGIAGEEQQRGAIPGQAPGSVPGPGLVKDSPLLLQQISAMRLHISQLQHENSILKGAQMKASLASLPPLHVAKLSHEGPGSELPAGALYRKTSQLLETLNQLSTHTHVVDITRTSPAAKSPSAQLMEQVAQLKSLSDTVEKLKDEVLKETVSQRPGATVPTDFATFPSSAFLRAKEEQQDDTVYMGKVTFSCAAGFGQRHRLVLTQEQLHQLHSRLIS

Target: GFP-tagged HEATR5B stably expressed in HEK293 cells (human) (UniProt Q9P2D3)
Test: co-IP

Molecule: DCTN1, endogenous in HEK293 cells (from UniProt Q14203 1-1278)
binding: binds

B2: Aftiphilin (AFTPH), endogenous in HEK293 cells (protein, UniProt Q6ULP2 1-936)
chain: MEPDIIRMYSSSPPPLDNGAEDDDDDEFGEFGGFSEVSPSGVGFVDFDTPDYTRPKEEFVPSNHFMPIHEFSENVDSLTSFKSIKNGNDKDITAELSAPVKGQSDVLLSTTSKEIISSEMLATSIDGMERPGNLNKVVEQRQNVGTLESFSPGDFRTNMNVVHQNKQLESCNGEKPPCLEILTNGFAVLETVNPQGTDDLDNVADSKGRKPLSTHSTEYNLDSVPSPAEEFADFATFSKKERIQLEEIECAVLNDREALTIRENNKINRVNELNSVKEVALGRSLDNKGDTDGEDQVCVSEISIVTNRGFSVEKQGLPTLQQDEFLQSGVQSKAWSLVDSADNSEAIRREQCKTEEKLDLLTSKCAHLCMDSVKTSDDEVGSPKEESRKFTNFQSPNIDPTEENDLDDSLSVKNGDSSNDFVTCNDINEDDFGDFGDFGSASGSTPPFVTGTQDSMSDATFEESSEHFPHFSEPGDDFGEFGDINAVSCQEETILTKSDLKQTSDNLSEECQLARKSSGTGTEPVAKLKNGQEGEIGHFDSVPNIQDDCNGFQDSDDFADFSSAGPSQVVDWNAFEDEQKDSCSWAAFGDQQATESHHRKEAWQSHRTDENIDTPGTPKTHSVPSATSKGAVASGHLQESATSVQTALLNRLERIFEACFPSILVPDAEEEVTSLKHLLETSTLPIKTREALPESGELLDVWTELQDIHDAHGLRYQWGGSHSNKKLLSSLGIDTRNILFTGNKKQPVIVPMYAAGLGMLEPTKEPLKPLSAAEKIASIGQTATMSPDMNTCTSDQFQESLPPVQFDWSSSGLTNPLDASGGSTLLNLDFFGPVDDSSSSSSTTIPGVDPELYELTTSKLEISTSSLKVTDAFARLMSTVEKTSTSTRKPKREEHLSEEAIKVIAGLPDLTFMHAKVLMFPATLTPSTSSQEKADG
binding: binds

Next, values leading:

binding: binds
Molecule: DYNC1H1, endogenous in HEK293 cells (from UniProt Q14204 1-4646)

binding: binds
B1: γ-synergin (SYNRG), endogenous in HEK293 cells (protein, UniProt Q9UMZ2 1-1314)
chain: MALRPGAGSGGGGAAGAGAGSAGGGGFMFPVAGGIRPPQAGLMPMQQQGFPMVSVMQPNMQGIMGMNYSSQMSQGPIAMQAGIPMGPMPAAGMPYLGQAPFLGMRPPGPQYTPDMQKQFAEEQQKRFEQQQKLLEEERKRRQFEEQKQKLRLLSSVKPKTGEKSRDDALEAIKGNLDGFSRDAKMHPTPASHPKKPGPSLEEKFLVSCDISTSGQEQIKLNTSEVGHKALGPGSSKKYPSLMASNGVAVDGCVSGTTTAEAENTSDQNLSIEESGVGVFPSQDPAQPRMPPWIYNESLVPDAYKKILETTMTPTGIDTAKLYPILMSSGLPRETLGQIWALANRTTPGKLTKEELYTVLAMIAVTQRGVPAMSPDALNQFPAAPIPTLSGFSMTLPTPVSQPTVIPSGPAGSMPLSLGQPVMGINLVGPVGGAAAQASSGFIPTYPANQVVKPEEDDFQDFQDASKSGSLDDSFSDFQELPASSKTSNSQHGNSAPSLLMPLPGTKALPSMDKYAVFKGIAADKSSENTVPPGDPGDKYSAFRELEQTAENKPLGESFAEFRSAGTDDGFTDFKTADSVSPLEPPTKDKTFPPSFPSGTIQQKQQTQVKNPLNLADLDMFSSVNCSSEKPLSFSAVFSTSKSVSTPQSTGSAATMTALAATKTSSLADDFGEFSLFGEYSGLAPVGEQDDFADFMAFSNSSISSEQKPDDKYDALKEEASPVPLTSNVGSTVKGGQNSTAASTKYDVFRQLSLEGSGLGVEDLKDNTPSGKSDDDFADFHSSKFSSINSDKSLGEKAVAFRHTKEDSASVKSLDLPSIGGSSVGKEDSEDALSVQFDMKLADVGGDLKHVMSDSSLDLPTVSGQHPPAADIEDLKYAAFGSYSSNFAVSTLTSYDWSDRDDATQGRKLSPFVLSAGSGSPSATSILQKKETSFGSSENITMTSLSKVTTFVSEDALPETTFPALASFKDTIPQTSEQKEYENRDYKDFTKQDLPTAERSQEATCPSPASSGASQETPNECSDDFGEFQSEKPKISKFDFLVATSQSKMKSSEEMIKSELATFDLSVQGSHKRSLSLGDKEISRSSPSPALEQPFRDRSNTLNEKPALPVIRDKYKDLTGEVEENERYAYEWQRCLGSALNVIKKANDTLNGISSSSVCTEVIQSAQGMEYLLGVVEVYRVTKRVELGIKATAVCSEKLQQLLKDIDKVWNNLIGFMSLATLTPDENSLDFSSCMLRPGIKNAQELACGVCLLNVDSRSRKEEKPAEEHPKKAFNSETDSFKLAYGGHQYHASCANFWINCVEPKPPGLVLPDLL
